# Data as given in PubChem BioAssay AID493014 (National Center for Advancing Translational Sciences (NCATS), 2011).
# In all, about 340,000 compounds went through this assay and about 170 (0.05%) were called active. Inconclusive results, whose numbers are uncertain, are shown with a selection of clear calls. Calls follow the shape of the dose curve; as a rule, active = well fitted inhibition curve with a large enough effect in the signal ratio, with a control signal flat (not every such curve was filed as active); inconclusive = small, poorly fitted or top-dose-only effect, or effect the other way, or a change in a side signal; inactive = flat fitted curve, though single readings scatter; the % refers to the signal ratio. Potencies beside an inconclusive call are fits to weak or partial responses and may not hold up.
# Test: qHTS Assay to Find Inhibitors of Chronic Active B-Cell Receptor Signaling;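 as to activity change, negative = inhibition: plate controls were basal doxycycline-induced cells for no effect and cells given 10 µM MG132 for full effect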
# Settings: ABC-DLBCL IkBa-CBG/CBR reporter, luminescence ratio (green luciferase fused to IkBa over red control in TMD8 lymphoma cells), 4 h; activity change, negative = inhibition: at 46.1 µM (top of the series)
# How it was run: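 Cell line TMD8 (human ABC DLBCL), stably expressing tet-inducible CBG68-IkBa fusion and CBR; IMDM/0.5% FBS; cpd up to 46 uM; dox induction, 4 h, 37C/5% CO2; dual luminescence; green/red ratio; MG132 control.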
# Potency is read from the fitted curve at half-maximal effect.
Compound,Potency,"activity change, negative = inhibition"
CCCC[C@@H]1C=C(C(=O)O)[C@H](c2ccc(Cl)c(Cl)c2)N1S(=O)(=O)c1ccc(C)cc1,"inconclusive: 23.1 µM [falling, partial curve, poor fit]",
CCOC(=O)C1=C(c2ccccc2)NC(=S)NC1c1cccc([N+](=O)[O-])c1 (stereo not drawn),,inactive: -0.998%
COc1ccc(/C=N/NC(=O)c2ccc[nH]2)cc1,"inconclusive: 22.4 µM [falling, partial curve]",
O=c1c2ccccc2nc(COc2ccccc2)n1/N=C/c1ccco1,,inconclusive: -17.2%
CCCCC(=O)Nc1ccccc1CC,,inactive: 6.62%
Cc1cc(C)n(-c2nc(NCCCN(C)C)c3c4c(sc3n2)COC(C)(C)C4)n1,"inconclusive: 14.1 µM [falling, partial curve, poor fit]",
O=C(CN1CCc2ccccc2C1)Nc1ccc(OC(F)(F)F)cc1,"inconclusive: 35.5 µM [falling, partial curve, poor fit]",
CSc1nc(-c2ccc(Cl)cc2Cl)[nH]c(=O)c1C#N,,inconclusive: 10.2%
O=c1c2ccccc2c(C=NCCc2ccccc2)c(O)n1Cc1ccccc1,"inconclusive: 29.1 µM [rising, single point]",
c1ccc2nc(-c3ccncc3)ccc2c1,,inconclusive: -10%
O=C(CSc1ccccc1C(=O)O)Nc1cccc(C(=O)O)c1,"inconclusive: 35.5 µM [falling, single point]",
CCn1c(C)cc(/C=C2/NC(=O)N(Cc3ccccc3F)C2=O)c1C,,inconclusive: -0.872%
Cc1cccn2c(=O)c(/C=C(\C#N)C(=O)NCc3ccco3)c(N3CCCCCC3)nc12,"inconclusive: 3.16 µM [rising, partial curve]",
CC(C(=O)Nc1cccc([N+](=O)[O-])c1)[n+]1ccccc1 (stereo not drawn),"inconclusive: 35.5 µM [falling, single point]",
COc1cc(C2=Nc3c(c(C)nn3-c3ccccc3)P(=O)(N3CCOCC3)O2)cc(OC)c1OC (stereo not drawn),,inconclusive: 14.6%
O=C(Nc1cccc(Cl)c1)c1ccc(F)c(S(=O)(=O)N2CCN(c3ccccn3)CC2)c1,,inconclusive: -0.806%
O=C(Nc1ccc(NC(=O)c2ccccc2Cl)nc1)c1ccncc1,"inconclusive: 12.6 µM [falling, partial curve, poor fit]",
Cc1cc(Br)cc2c1NC(=O)C2(O)CC(=O)c1ccco1 (stereo not drawn),"inconclusive: 28.2 µM [falling, single point]",
CCOc1ccc(CC(=O)NNC(=S)NC)cc1Br,,inconclusive: -6.01%
COc1cc(S(=O)(=O)NCCN2CCOCC2)ccc1-n1cnnn1,,inconclusive: 0.602%
O=S(=O)(c1cccc(C(F)(F)F)c1)N1CCC(c2cc(-c3cccc4ccccc34)n[nH]2)CC1,"inconclusive: 14.1 µM [rising, partial curve, poor fit]",
CCOc1ccc(OCCC(=O)N2CCN(S(=O)(=O)c3ccc(F)cc3)CC2)cc1,,inconclusive: 14.1%
COc1cccc(-n2nnc(S(=O)(=O)c3ccc(C)cc3)c2N)c1,,inactive: -1.57%
O=C(CC(c1ccccc1)c1ccccc1)Nc1nn[nH]n1,,inactive: 2.07%
O=Cc1ccccc1OCc1ccc2c(c1)OCO2,"inconclusive: 22.4 µM [falling, partial curve]",
Cc1oc2c(C)c3oc(=O)c(CCC(=O)O)c(C)c3cc2c1-c1ccccc1,,inactive: -1.53%

# Arranged by count of non-hydrogen atoms (ascending): part of the list above
Compound,Potency,"activity change, negative = inhibition"
CC(C(=O)Nc1cccc([N+](=O)[O-])c1)[n+]1ccccc1 (stereo not drawn),"inconclusive: 35.5 µM [falling, single point]",
O=c1c2ccccc2c(C=NCCc2ccccc2)c(O)n1Cc1ccccc1,"inconclusive: 29.1 µM [rising, single point]",
CCCC[C@@H]1C=C(C(=O)O)[C@H](c2ccc(Cl)c(Cl)c2)N1S(=O)(=O)c1ccc(C)cc1,"inconclusive: 23.1 µM [falling, partial curve, poor fit]",

# Later entries

Compound,Potency,"activity change, negative = inhibition"
C/C(=N/Nc1ccc(C)cc1)C1(C)N(O)C(C)(C)C(c2ccco2)=[N+]1[O-] (stereo not drawn),,inconclusive: 1.55%
Cc1nonc1OC(C)CNc1ccc([N+](=O)[O-])cc1 (stereo not drawn),,inactive: 3.52%
O=C(Cc1ccc(F)cc1)NCCc1ccc(F)cc1,,inconclusive: 16.3%
Cc1[nH]c2ccccc2c1CCN(Cc1cccnc1)C(=S)NC(C)(C)C,,inactive: 4.63%
COc1cc(C(=O)N/N=C(\C)c2ccc(NC(=O)Cc3ccccc3)cc2)ccc1O,"inconclusive: 28.2 µM [falling, single point]",
O=C(CN1C(=O)C2C3C=CC(C3)C2C1=O)NCCC1=CCCCC1 (stereo not drawn),,inconclusive: 7.71%
Clc1cc(Cl)c(Cl)cc1Cl,,inactive: -0.123%
Cc1cccc(C(=O)Nc2ccc(C(=O)N/N=C/c3cccc(C)n3)cc2)c1,,inconclusive: 5.35%
COc1cc(C2C(C(=O)c3ccc(C)o3)=C(O)C(=O)N2c2cc(C)on2)cc(Br)c1O (stereo not drawn),,inconclusive: 8.44%
O=C1c2cccc3cccc(c23)C(=O)N1/N=C/c1ccc(O)cc1O,,inconclusive: -20.8%
Cc1ccccc1N(C(=O)c1cccs1)c1nc2ccccc2s1,"inconclusive: 16.4 µM [rising, partial curve, poor fit]",
O=S(=O)(c1ccc2c(c1)OCCO2)N1CCC(n2cnc3cc(F)ccc32)CC1,,inconclusive: 3.6%
Cc1ccsc1/C=N/Nc1ncc(Cl)cc1Cl,"inconclusive: 3.66 µM [falling, partial curve]",
CCOC(=O)CC(=O)CSc1nc2ccccc2c(=O)n1CCc1ccc(S(N)(=O)=O)cc1,,inconclusive: -7.52%
COc1cccc(C(=O)O/N=C(\N)c2ccncc2)c1OC,"inconclusive: 29.1 µM [cytotoxic, single point]",
NNC(=O)c1snnc1-c1ccccc1,,inconclusive: -1.13%
CC(Sc1nnc(C2CC2)n1C1CC1)C(=O)NC1(C#N)CCCCC1 (stereo not drawn),,inconclusive: -0.366%
Cc1ccc(NC(=O)CSc2ncc3ccccn23)cc1C,,inactive: 4.68%
O=C(c1ccc(N2C(=O)C3CCCCC3C2=O)cc1)N1CCCCC1 (stereo not drawn),,inactive: -0.119%
C#CC1(NC(=O)NS(=O)(=O)c2ccc(C)cc2)CCCCC1,,inconclusive: 1.69%
O=C(C[n+]1ccc(/C=N/O)cc1)N(Cc1ccccc1)Cc1ccccc1,,inconclusive: 0.106%
O=C(CNC(=S)NC(=O)c1ccc(F)cc1)c1ccccc1,,inactive: 3.28%
CC(=O)NC(Cc1cccc(C)c1)C(=O)NC1CCN(C(=O)NCc2ccccc2)CC1 (stereo not drawn),"inconclusive: 35.5 µM [rising, single point]",
Cn1c(N)c(N=Nc2ccc(S(N)(=O)=O)cc2)c(=O)n(C)c1=O,,inconclusive: -0.622%
CC(C)(C)C1CCC2(CC1)C(C#N)=C(SCC(=O)Nc1ccccc1)NC(=O)C2C#N (stereo not drawn),,inconclusive: 29.3%
Cc1ccc(-c2ccc(/C=C/C(=O)c3ccccc3)o2)cc1,,inconclusive: 15.8%

Compound,Potency,"activity change, negative = inhibition"
O=C(COc1ccc(/C=N/NC(=O)c2ccccc2O)cc1)Nc1ccc([N+](=O)[O-])cc1,,inconclusive: -24.2%
COc1ccc(-c2csc(NC(=O)COC(=O)c3ccc(Br)o3)n2)cc1,,inconclusive: -0.997%
O=C(NC(=S)N1CCN(c2ccc([N+](=O)[O-])cc2)CC1)c1ccccc1,"inconclusive: 1.12 µM [falling, full curve, poor fit]",
O=C(CCl)Nc1ccc2c(c1)OCO2,"inconclusive: 6.31 µM [falling, partial curve, poor fit]",
Cc1nc2ccccn2c1C(=O)N/N=C/c1ccc([N+](=O)[O-])cc1,,inconclusive: -0.63%
N#C/C(=C/c1ccccc1)C(=O)OCC(=O)Nc1ccccc1[N+](=O)[O-],,inconclusive: -0.344%
Nn1c(SCC(=O)NC2CCCCC2)nnc1-c1ccccc1F,,inactive: -1.88%
Cc1nnc(SCc2cccc(CSc3nnc(C)s3)c2)s1,"inconclusive: 32.6 µM [falling, single point]",
O=C(CN(C(=O)CNC(=O)c1cccs1)c1ccc(F)cc1)NC1CCCC1,,inconclusive: -7.66%
O=C(N/N=C/c1ccco1)c1cc(-c2cccc3ccccc23)n[nH]1,"inconclusive: 15.8 µM [rising, partial curve, poor fit]",
COc1ccc(-c2c(C)c3ccc(O)cc3oc2=O)cc1OC,"inconclusive: 11.2 µM [falling, partial curve]",
Cc1ccc(NC(=O)NNS(=O)(=O)c2ccc(Br)cc2)cc1,,inactive: -1.27%
CCC(C(=O)NCc1ccco1)N(Cc1cccs1)C(=O)CNS(=O)(=O)c1ccccc1 (stereo not drawn),,inconclusive: 13.2%
O=C(COC(=O)Cc1ccc(S(=O)(=O)N2CCOCC2)s1)Nc1ccc(OC(F)F)cc1,,inconclusive: 1.76%
O=C(CC1N=C2c3ccccc3N=C(SCC(=O)Nc3ccc(F)cc3)N2C1=O)NCc1cccs1 (stereo not drawn),,inconclusive: 14%
O=S(=O)(Nc1ccc(S(=O)(=O)Nc2cccc3ccccc23)cc1)c1ccccc1,"inconclusive: 5.17 µM [falling, partial curve]",
Fc1ccc(/C=C/c2nnc(-c3cccs3)o2)cc1,"inconclusive: 16.4 µM [falling, partial curve]",
CCc1ccc(NC(=O)C(=O)NCC2CCCO2)cc1 (stereo not drawn),"inconclusive: 35.5 µM [falling, single point]",
O=c1[nH]cnc2c1cnn2Cc1ccccc1Cl,,inactive: 7.68%
COC(=O)CCC(=O)Nc1nccs1,,inconclusive: -0.0828%
CCC1CCCCN1CCCNC(=O)CCCOc1cc(=O)n(C)c2ccccc12 (stereo not drawn),,inconclusive: 3.67%
CCCCn1c(-c2ccc(C(C)(C)C)cc2)nc2cc3[nH]c(=O)c(C(C)C)nc3cc21,"inconclusive: 10 µM [rising, partial curve]",
CCc1ccc(NC(=O)CNC(=O)[C@@H]2Cc3ccccc3CN2)cc1,,inconclusive: -162%
COc1ccccc1-n1cnc2c(c1=O)c1nc3ccccc3nc1n2-c1ccc(C)cc1,,inconclusive: 7.5%
COc1cc(-c2nc(-c3cccc(C(F)(F)F)c3)no2)cc(OC)c1OC,,inconclusive: 3.85%
CCCCn1c(SCC(=O)c2ccc3c(c2)OCCO3)nnc1-c1ccco1,,inconclusive: 3.82%
